Values of other authors in patent US20200245660A1, “AGROCHEMICAL-FREE SIRAITIA GROSVENORII EXTRACT, AND METHOD FOR PREPARING SAME” (priority 2015, published 2020).
Some results were stated once for a whole list of compounds, not compound by compound. For at least one compound, name, drawing or mass did not settle the structure.

Conditions: summary statement; 20 to 25 °C; cited from earlier work

SMILES | distribution coefficient (LogPow)
COCC(=O)N(c1c(C)cccc1C)[C@H](C)C(=O)OC [Metalaxyl M, metalaxyl M] | at least 1.71
COCC(=O)N(c1c(C)cccc1C)C(C)C(=O)OC (centres unmarked) [Metalaxyl, metalaxyl] | at least 1.71
